Experiment: Organic thin-film transistor (OTFT) field effect mobility of TTPO thin film
Conditions: OTFT prepared from TTPO
Experimental: Drain current versus drain-source voltage are shown for several gate voltages. This device has a field-effect hole mobility of 1.27×10^−6 cm^2 V^−1 s^−1 at 75° C. and 8.05×10^−6 cm^2 V^−1 s^−1 at 100° C.
FET Studies of Thin-Films. […] (see FIG. 5 for drain-source current versus drain-source voltage behavior as a function of gate voltage).

O=C1c2cc3ccccc3c3c2C2=S(S3)Sc3c2c1cc1ccccc31 [TTPO, 5,6,7-Trithiapentacene-13-one]
field effect mobility (at 75° C.): 1.27×10^−6 cm^2 V^−1 s^−1 | field effect mobility (at 100° C.): 8.05×10^−6 cm^2 V^−1 s^−1

Reference: US8389744B1, “TTPO (5 6,7-trithiapentacene-13-one) and its derivatives: a new class of thermally stable, photooxidatively resistant organic semiconductors” (University of New Hampshire, priority 2011, dated 2013)
